Test results reported in PubChem BioAssay AID2099 (Broad Institute, 2009).
In all, about 330,000 compounds went through this assay and about 230 (0.07%) were called active. The inconclusive results got no clear call from the source; some entries with a clear call stand among them for comparison.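 How the source made its calls: active means more than half of a compound's replicate wells show inhibition beyond 50%, single wells judged on their own value; inconclusive means some, but no more than half, of replicates pass 50% inhibition; inactive means no replicate passes 50% inhibition.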

Protein sequences, listed by entry. Tags and fused reporters are not part of them. Residues count along the entry.
UniProt Q9H3R0, 1-420 limits assumed: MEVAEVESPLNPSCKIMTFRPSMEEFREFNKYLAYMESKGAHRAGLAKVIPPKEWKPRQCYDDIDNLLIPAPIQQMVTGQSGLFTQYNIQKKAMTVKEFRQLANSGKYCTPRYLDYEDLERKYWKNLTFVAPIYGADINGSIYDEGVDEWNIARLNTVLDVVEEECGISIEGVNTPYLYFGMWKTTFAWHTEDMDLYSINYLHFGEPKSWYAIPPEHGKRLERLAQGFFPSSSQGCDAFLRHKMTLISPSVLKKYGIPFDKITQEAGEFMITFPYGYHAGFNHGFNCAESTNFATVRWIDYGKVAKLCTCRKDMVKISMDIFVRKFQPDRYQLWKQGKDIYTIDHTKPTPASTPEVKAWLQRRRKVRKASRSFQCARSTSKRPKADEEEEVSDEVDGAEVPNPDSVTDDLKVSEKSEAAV

target: Lysine-specific demethylase 4C (Homo sapiens) (UniProt Q9H3R0); test: inhibitors of GASC-1 histone demethylase, primary screen, biochemical, fluorescence, DELFIA europium (AID 2099); details: GST-JMJD2C(1-420) H3K9me3 demethylation, at 2.35 µM, active compounds read high;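 further: signal counts dimethyl H3K9 product captured on neutravidin plate; 0% = median of DMSO wells and 100% = 0.3 times that DMSO median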

Question: With C=CCn1c(C)c(C(=O)OCC)c2cc(O)c3ccccc3c21 as the molecule, how does the inhibition read?
Answer: inactive: 5.38%

Question: With CCCCn1c(N)c(N(CC(C)C)C(=O)c2cccc(-n3cnnn3)c2)c(=O)[nH]c1=O as the molecule, how does the inhibition read?
Answer: inconclusive: -50.6%

Question: How did the inhibition turn out when CCN(C(=O)c1ccc2c(c1)OCO2)C1CCS(=O)(=O)C1 (stereo not drawn) was run?
Answer: inconclusive: -189%

Question: How did the inhibition turn out when O=C(NCCC1=CCCCC1)c1ccc(Cl)c(S(=O)(=O)N2CCCCC2)c1 was run?
Answer: inactive: -6.07%

Question: For CC(C)(CO)Nc1ccc([N+](=O)[O-])cc1[N+](=O)[O-], which inhibition is on record?
Answer: inconclusive: -64.4%

Question: Cc1nc2ccc(C(=O)N/N=C/c3cc([N+](=O)[O-])ccc3O)cc2[nH]1 was tested. Which inhibition did it give?
Answer: active: 57.6%

Question: O=C(CCc1c[nH]c2ccccc12)NCc1ccc2c(c1)OCO2 was tested. Which inhibition did it give?
Answer: inactive: -4.17%

Question: For CCCCc1cc(=O)oc2cc(OCC(=O)NCCN3CCOCC3)ccc12, which inhibition is on record?
Answer: inconclusive: -94.4%

Question: O=C(NCCc1ccccc1)c1ccc(OCCOc2ccccc2)cc1 was tested. Which inhibition did it give?
Answer: inconclusive: -204%

Question: With O=C1CC(c2ccccc2)Oc2cc(O)cc(O)c21 (stereo not drawn) as the molecule, how does the inhibition read?
Answer: inconclusive: -195%

Question: How did the inhibition turn out when CNC(=O)C1CC(=O)N(Cc2ccccc2)C(=Nc2ccc(OC)cc2)S1 (stereo not drawn) was run?
Answer: inconclusive: -57.6%

Question: For COc1cccc(OCc2cc(C(=O)N(C)CCC3CCCCO3)no2)c1 (stereo not drawn), which inhibition is on record?
Answer: inconclusive: -55.2%

Question: How did the inhibition turn out when c1ccc(COc2ccccc2CNc2nn[nH]n2)cc1 was run?
Answer: inactive: -4.86%

Question: How did the inhibition turn out when Cc1ccc(S(=O)(=O)NCc2ccco2)cc1C(N)=O was run?
Answer: inconclusive: -53.3%

Question: How did the inhibition turn out when C=CCn1c(NC(=O)c2ccc(Br)o2)c(C(=O)OCC)sc1=S was run?
Answer: inconclusive: -101%

Question: Which inhibition does the source give for CC(C)c1ccc(NC(=O)C2CCN(C(=O)[C@@H]3Cc4ccccc4CN3)CC2)cc1 here?
Answer: inconclusive: -132%

Question: How did the inhibition turn out when CCN1CCN(C(=S)Nc2ccsc2C(=O)OC)CC1 was run?
Answer: inconclusive: -75.2%

Question: With CCc1cccc(C)c1NC(=S)N(CCCN1CCOCC1)Cc1cccnc1 as the molecule, how does the inhibition read?
Answer: inconclusive: -37.6%

Question: Which inhibition does the source give for O=c1cc2c(=O)oc3cc(O)c(O)oc3c2c(O)c1O here?
Answer: inconclusive: -85.1%

Question: With C=CCn1c(SC(C)C(=O)Nc2ccc(Cl)cn2)nnc1C1CC1 (stereo not drawn) as the molecule, how does the inhibition read?
Answer: inconclusive: -147%

Question: CCOC(=O)C1C(=O)CC(C)(O)C(C(=O)OCC)C1c1ccc2c(c1)OCO2 (stereo not drawn) was tested. Which inhibition did it give?
Answer: inconclusive: -54.8%

Question: Which inhibition does the source give for Cc1cccc(NC(=O)COc2ccccc2C)n1 here?
Answer: inconclusive: -60.3%

Question: How did the inhibition turn out when CCCCCc1ccc(OCCCC[n+]2ccccc2)c(CCCCC)c1 was run?
Answer: inconclusive: -50.1%

Question: CN(CC1CCCN(CCc2ccccc2F)C1)C(=O)c1ccoc1 (stereo not drawn) was tested. Which inhibition did it give?
Answer: inconclusive: -61%

Question: With NNc1ncnc2scc(-c3ccc(Cl)cc3)c12 as the molecule, how does the inhibition read?
Answer: inconclusive: -61.9%

Question: With CCOc1ccc(S(=O)(=O)N2CCCCC2)cc1NC(=O)C1CSC2(C)CCC(=O)N12 (stereo not drawn) as the molecule, how does the inhibition read?
Answer: inconclusive: -88.9%

Question: With Cc1ccc(SC(c2ccc(C)cc2)C(Cn2cncn2)C(=O)c2ccccc2)cc1 (stereo not drawn) as the molecule, how does the inhibition read?
Answer: inactive: 3.47%

Question: COc1ccc(CNc2ccc(-c3ccccc3OC)nn2)cc1 was tested. Which inhibition did it give?
Answer: inconclusive: -50.6%

Question: With O=C(N/N=C/c1cccc(O)c1)c1ccc(NC(=O)C2CCCCC2)cc1 as the molecule, how does the inhibition read?
Answer: inactive: -3.74%

Question: Which inhibition does the source give for CCc1ccccc1NC(=O)C1CCCN(c2ncnc3onc(-c4ccc(F)cc4)c23)C1 (stereo not drawn) here?
Answer: inconclusive: -100%

Question: Which inhibition does the source give for CCN1C(=O)[C@H]2[C@@H](c3ccc(-c4ccc(OC)cc4)cc3)N3CCC[C@@]3(C(=O)OC)[C@H]2C1=O here?
Answer: inactive: -6.25%

Question: How did the inhibition turn out when Cc1c(Cl)c([N+](=O)[O-])nn1CCCC(=O)N(Cc1ccccc1)Cc1ccccc1 was run?
Answer: inactive: -4.59%

Question: With Cc1cc(C)c2c(=O)n(CC(=O)NC3CCCC3)sc2n1 as the molecule, how does the inhibition read?
Answer: inactive: 3.1%

Question: Which inhibition does the source give for O=C(CCNC(=O)N1CC(=O)Nc2ccccc21)NCc1ccc(F)cc1 here?
Answer: inconclusive: -63.9%

Question: Cc1ccc(Nc2nnc(SCC(=O)c3ccc(O)cc3O)s2)cc1 was tested. Which inhibition did it give?
Answer: inactive: 12.6%

Question: For Cc1ccsc1C(=O)OCC(=O)NCCNC(=O)COC(=O)c1sccc1C, which inhibition is on record?
Answer: inconclusive: -74.7%

Question: For COc1ccc(OC)c(NC(=O)CSc2nnc(-c3cnccn3)n2C)c1, which inhibition is on record?
Answer: inconclusive: -94.5%

Question: How did the inhibition turn out when Cc1ccc(S(=O)(=O)N2CCOCC2)cc1NC(=O)c1ccc(F)cc1F was run?
Answer: inactive: 1.75%

Question: Which inhibition does the source give for C=CCN1CCN(C(=O)c2cc3c(s2)CCCC3)CC1 here?
Answer: inconclusive: -54.1%

Question: For CCC(=O)Oc1ccc2c(C)cc(=O)oc2c1C(=O)CC, which inhibition is on record?
Answer: inconclusive: -51.2%

Question: How did the inhibition turn out when Cc1nn(-c2ccccc2)c2c1C(c1c(C)[nH]c(C#N)c1C)C(C#N)=C(N)O2 (stereo not drawn) was run?
Answer: inconclusive: -66.1%

Question: Oc1ccc(COCc2ccccc2)c2cccnc12 was tested. Which inhibition did it give?
Answer: inconclusive: -22.2%

Question: With Cc1ccc(Nc2nc3c([nH]2)c(=O)n(C)c(=O)n3C)cc1 as the molecule, how does the inhibition read?
Answer: inactive: 0.1%

Question: How did the inhibition turn out when CCc1ccc(CCC(=O)Nc2sc3c(c2C#N)CCCC3)o1 was run?
Answer: active: 51.2%

Question: For OC(COc1ccc(Br)cc1)CN1CCN(c2ccccc2)CC1 (stereo not drawn), which inhibition is on record?
Answer: inactive: -1.23%

Question: With O=[N+]([O-])c1cccc(NC(=S)NCCc2ccccc2)c1 as the molecule, how does the inhibition read?
Answer: inconclusive: -71.6%

Question: How did the inhibition turn out when COC(=O)[C@]1(C)N[C@H](CN(C)S(=O)(=O)c2ccc(C)cc2)[C@@H]2C(=O)N(Cc3ccccc3)C(=O)[C@@H]21 was run?
Answer: active: 61.6%

Question: Which inhibition does the source give for COc1ccc2cc(Br)ccc2c1CC(=O)NCCCN1CCOCC1 here?
Answer: active: 56.6%

Question: COc1ccc(S(=O)(=O)Nc2nnc(C(C)(C)C)s2)cc1 was tested. Which inhibition did it give?
Answer: inconclusive: -168%

Question: With c1cc2c(cc1C1CCCN1)OCCCO2 (stereo not drawn) as the molecule, how does the inhibition read?
Answer: inconclusive: -79.1%

Question: Which inhibition does the source give for CCOC(=O)c1sc(NC(=O)CSc2nnnn2-c2ccc(C)cc2)c(C(=O)OCC)c1C here?
Answer: inconclusive: -53.1%

Question: For O=C(CCN1CCN(C(c2ccccc2)c2ccccc2)CC1)N/N=C/c1ccc(O)cc1O, which inhibition is on record?
Answer: inactive: -6.45%

Question: With Cc1ccc(NC(=O)c2ccsc2)cc1NS(C)(=O)=O as the molecule, how does the inhibition read?
Answer: inconclusive: -84%

Question: For CC(C)[C@H](N)c1nnc(SCc2ccc(Cl)cc2)o1, which inhibition is on record?
Answer: inconclusive: -52.3%

Question: How did the inhibition turn out when COc1ccc(/C=C2\SC(=O)N(CC(=O)NC3C=CS(=O)(=O)C3)C2=O)cc1 (stereo not drawn) was run?
Answer: inconclusive: -110%

Question: With O=C(NCCS(=O)(=O)NC1CCCC1)c1ccccc1 as the molecule, how does the inhibition read?
Answer: inconclusive: -201%

Question: O=C(Nc1ccc2c(c1)OCO2)c1ccc2c(c1)OCO2 was tested. Which inhibition did it give?
Answer: inactive: -1.26%

Question: Which inhibition does the source give for CCCOc1ccc(N2CC(C(=O)Nc3ccccc3C(=O)NC)CC2=O)cc1 (stereo not drawn) here?
Answer: inactive: -2.47%

Question: For CN(c1ccccc1)S(=O)(=O)c1cccc(NC(=O)COC(=O)C2CCCCC2)c1, which inhibition is on record?
Answer: inactive: 8.68%

Question: Which inhibition does the source give for COc1cccc(NC(=O)C(=O)NCCCN2CCCC2=O)c1 here?
Answer: inactive: -0.696%

Question: How did the inhibition turn out when Cc1cc2c(C)nc(N/N=C/c3ccc(F)cc3)nc2o1 was run?
Answer: inactive: 0.692%

Question: How did the inhibition turn out when Cc1ccc(-n2nnnc2SCC(=O)Nc2ncc(Cc3ccccc3Cl)s2)cc1 was run?
Answer: inactive: -0.219%

Question: How did the inhibition turn out when O=c1[nH]c2cc3c(cc2cc1C(c1nnnn1CC1CCCO1)N1CCCCCC1)OCO3 (stereo not drawn) was run?
Answer: inconclusive: -147%

Question: Which inhibition does the source give for O=C(C1CC1)N1CCc2cc(Br)cc(S(=O)(=O)NC3CCCCC3)c21 here?
Answer: inconclusive: -62.1%

Question: Which inhibition does the source give for CCCCCCSc1cc(-c2nc3cnccn3c2NCc2ccccc2)ccc1OC here?
Answer: inactive: 0.657%

Question: Cn1c(/C(C#N)=C(\O)c2ccc(Br)s2)nc2ccccc21 was tested. Which inhibition did it give?
Answer: inactive: 4.92%

Question: How did the inhibition turn out when Cc1ccccc1C(=O)N1CCN(c2ccc(NC(=O)c3ccc4c(c3)OCCO4)cc2)CC1 was run?
Answer: inconclusive: -50.1%

Question: Which inhibition does the source give for CCCn1c(=O)n(C)c(=O)c2c(SC(C)C(=O)NCC3CCCO3)nc(CC(C)C)nc21 (stereo not drawn) here?
Answer: inconclusive: -137%

Question: With COc1ccc(-c2cccc(NS(=O)(=O)c3ccc([N+](=O)[O-])cc3)c2)nn1 as the molecule, how does the inhibition read?
Answer: inconclusive: -30.1%

Question: How did the inhibition turn out when NC(=S)N=Nc1c(O)[nH]c2c(Br)cc(Br)cc12 was run?
Answer: inactive: -16.9%

Question: For Cc1cc(Cl)n2c(nc3cc(F)c(F)cc32)c1C#N, which inhibition is on record?
Answer: inconclusive: -80.2%

Question: Cc1csc(NC(=O)CN2C(=O)COc3ccc(Cl)cc32)n1 was tested. Which inhibition did it give?
Answer: inconclusive: -61%

Question: O=C(CSC(=S)N1CCCC1)c1cc(Br)cc(Br)c1O was tested. Which inhibition did it give?
Answer: active: 57.8%

Question: For COc1cc(OC)c(OC)cc1/C=N/n1c(COc2ccccc2)n[nH]c1=S, which inhibition is on record?
Answer: inconclusive: -87.9%

Question: Which inhibition does the source give for O=C(NCc1cccnc1)c1cc2nc(-c3cccs3)cc(C(F)(F)Cl)n2n1 here?
Answer: inconclusive: -54.7%

Question: With OCCC1CN(CCCc2ccccc2)CCN1CCc1ccccc1 (stereo not drawn) as the molecule, how does the inhibition read?
Answer: inconclusive: -76.5%

Question: How did the inhibition turn out when Cc1ccc(Cn2cccc(NC(=O)NC3CCCCC3)c2=O)cc1 was run?
Answer: inconclusive: -66.1%

Question: With Cc1ccccc1S(=O)(=O)Cc1ccc(C(=O)NCCN(CC(C)C)CC(C)C)o1 as the molecule, how does the inhibition read?
Answer: inconclusive: -61.5%

Question: O=C(Nc1nnc(SCc2ccccc2)s1)c1cccc([N+](=O)[O-])c1 was tested. Which inhibition did it give?
Answer: inactive: 0.883%

Question: Which inhibition does the source give for Cc1[nH]c(C)c(S(=O)(=O)N2CCN(c3ccccc3)CC2)c1C(=O)N1CCCCC1 here?
Answer: inactive: 0.398%

Question: Cc1ccc2nc3nc(NCC4CCCO4)c(C(=O)NC4CCCCC4)cc3c(=O)n2c1 (stereo not drawn) was tested. Which inhibition did it give?
Answer: inactive: 3.4%

Question: How did the inhibition turn out when Cc1ccc(-c2nc3ncccc3o2)cc1NC(=O)C(C)C was run?
Answer: inconclusive: -89.4%

Question: COc1ccc(C2NS(=O)(=O)OCC2C)cc1 (stereo not drawn) was tested. Which inhibition did it give?
Answer: inconclusive: -116%

Question: With O=c1ccc2c(-c3ccccc3S(=O)(=O)O)c3ccc(O)c(O)c3oc-2c1O as the molecule, how does the inhibition read?
Answer: active: 79.5%

Question: Which inhibition does the source give for NC(N)=N/N=C/c1c(Cl)cccc1Cl here?
Answer: inconclusive: -55.7%

Question: How did the inhibition turn out when O=C(Nc1ccc(C(O)(C(F)(F)F)C(F)(F)F)cc1)c1ccc(Cl)c([N+](=O)[O-])c1 was run?
Answer: inactive: -3.7%

Question: For O=C1C2(CCC13COC(c1ccc(O)cc1)OC3)COC(c1ccc(O)cc1)OC2 (stereo not drawn), which inhibition is on record?
Answer: inconclusive: -88.7%

Question: How did the inhibition turn out when C#CCOCCOCCOCCNc1nc(N2CCN(C(=O)[C@H](CCCCN)n3cc([C@@H](N)[C@H](C)CC)nn3)CC2)nc(N2CCN(C(=O)[C@H](CCC(=O)O)n3cc([C@@H](N)CCSC)nn3)CC2)n1 was run?
Answer: active: 52.4%
